Data published in patent US6087371A, “Heterocyclyl-ergoline derivatives as 5-HT1A receptor ligands” (Pharmacia & Upjohn S.p.A., priority 1996, dated 2000).
pIC50: −log10 of the molar value. For at least one compound, name, drawing or mass did not settle the structure.

molecular target: D1 receptor; assay: Affinity for D1 receptor (method not described); type: binding; settings: read-out: D1 affinity expressed as IC50

| Structure (SMILES) | pIC50 |
| --- | --- |
| CO[C@]12C[C@@H](Cc3noc(-c4cncc(Br)c4)n3)CN(C)[C@@H]1Cc1cn(C)c3cccc2c13 [Example 2, 1,6-Dimethyl-8β-methyl-[5-(5-bromo-pyridin-3-yl)-1,2,4-oxadiazol-3-yl]-10α-methoxy-ergoline] | 5.95 |
| CO[C@]12C[C@@H](Cc3nc(-c4cncc(Br)c4)no3)CN(C)[C@@H]1Cc1cn(C)c3cccc2c13 [Example 4, 1,6-Dimethyl-8β-methyl-[3-(5-bromo-pyridin-3-yl)-1,2,4-oxadiazol-5-yl]-10α-methoxy-ergoline] | 5.85 |
| CO[C@]12C[C@@H](Cc3nnc(-c4cncc(Br)c4)o3)CN(C)[C@@H]1Cc1cn(C)c3cccc2c13 [Example 10, 1,6-Dimethyl-8β-methyl-[2-(5-bromo-pyridin-3-yl)-1,3,4-oxadiazol-5-yl]-10α-methoxy-ergoline] | 5.61 |
